Source: paper PMC3944714
These are yes or no findings as the source states them, for the method shown. Binding seen in cells or lysates may run through a third protein. Some results given as binding are weak or reduced against the parent protein; the word gives no strength. Sequences can lack the tags named with a protein.

Target: T1, GST-ATF2 (UniProt P15336)
T1 sequence: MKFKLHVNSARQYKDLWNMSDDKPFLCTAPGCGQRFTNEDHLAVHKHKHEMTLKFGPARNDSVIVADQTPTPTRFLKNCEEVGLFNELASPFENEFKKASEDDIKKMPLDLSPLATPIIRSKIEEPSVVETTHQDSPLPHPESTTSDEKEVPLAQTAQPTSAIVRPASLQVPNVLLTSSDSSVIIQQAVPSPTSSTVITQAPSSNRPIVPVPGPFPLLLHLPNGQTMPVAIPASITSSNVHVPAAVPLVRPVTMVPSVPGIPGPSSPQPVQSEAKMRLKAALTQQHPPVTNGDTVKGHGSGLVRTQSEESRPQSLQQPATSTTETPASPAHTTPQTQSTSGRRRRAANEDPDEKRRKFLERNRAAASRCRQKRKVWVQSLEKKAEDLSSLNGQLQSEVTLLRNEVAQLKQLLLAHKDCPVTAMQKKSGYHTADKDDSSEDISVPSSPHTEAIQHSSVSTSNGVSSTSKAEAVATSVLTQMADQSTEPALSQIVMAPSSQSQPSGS
Assay: pull-down; only the target purified

B1: His-MCAF1 (protein, UniProt Q6VMQ6 1-1270)
chain: MDSLEEPQKKVFKARKTMRVSDRQQLEAVYKVKEELLKTDVKLLNGNHENGDLDPTSPLENMDYIKDKEEVNGIEEICFDPEGSKAEWKETPCILSVNVKNKQDDDLNCEPLSPHNITPEPVSKLPAEPVSGDPAPGDLDAGDPASGVLASGDSTSGDPTSSEPSSSDAASGDATSGDAPSGDVSPGDATSGDATADDLSSGDPTSSDPIPGEPVPVEPISGDCAADDIASSEITSVDLASGAPASTDPASDDLASGDLSSSELASDDLATGELASDELTSESTFDRTFEPKSVPVCEPVPEIDNIEPSSNKDDDFLEKNGADEKLEQIQSKDSLDEKNKADNNIDANEETLETDDTTICSDRPPENEKKVEEDIITELALGEDAISSSMEIDQGEKNEDETSADLVETINENVIEDNKSENILENTDSMETDEIIPILEKLAPSEDELTCFSKTSLLPIDETNPDLEEKMESSFGSPSKQESSESLPKEAFLVLSDEEDISGEKDESEVISQNETCSPAEVESNEKDNKPEEEEQVIHEDDERPSEKNEFSRRKRSKSEDMDNVQSKRRRYMEEEYEAEFQVKITAKGDINQKLQKVIQWLLEEKLCALQCAVFDKTLAELKTRVEKIECNKRHKTVLTELQAKIARLTKRFEAAKEDLKKRHEHPPNPPVSPGKTVNDVNSNNNMSYRNAGTVRQMLESKRNVSESAPPSFQTPVNTVSSTNLVTPPAVVSSQPKLQTPVTSGSLTATSVLPAPNTATVVATTQVPSGNPQPTISLQPLPVILHVPVAVSSQPQLLQSHPGTLVTNQPSGNVEFISVQSPPTVSGLTKNPVSLPSLPNPTKPNNVPSVPSPSIQRNPTASAAPLGTTLAVQAVPTAHSIVQATRTSLPTVGPSGLYSPSTNRGPIQMKIPISAFSTSSAAEQNSNTTPRIENQTNKTIDASVSKKAADSTSQCGKATGSDSSGVIDLTMDDEESGASQDPKKLNHTPVSTMSSSQPVSRPLQPIQPAPPLQPSGVPTSGPSQTTIHLLPTAPTTVNVTHRPVTQVTTRLPVPRAPANHQVVYTTLPAPPAQAPLRGTVMQAPAVRQVNPQNSVTVRVPQTTTYVVNNGLTLGSTGPQLTVHHRPPQVHTEPPRPVHPAPLPEAPQPQRLPPEAASTSLPQKPHLKLARVQSQNGIVLSWSVLEVDRSCATVDSYHLYAYHEEPSATVPSQWKKIGEVKALPLPMACTLTQFVSGSKYYFAVRAKDIYGRFGPFCDPQSTDVISSTQSS
binding: binds
